Publication PMC9674103
These are yes or no findings as the source states them, for the method shown.

What was measured:
Conditions in all cases: remark: other sources report otherwise
[1] = target: T1, full-length recombinant human espin 1 (ectoplasmic specialization protein 1) (human), B1AK53; test: non-reducing PAGE; espin 1 without beta-mercaptoethanol against a reducing control; both purified
T1 chain: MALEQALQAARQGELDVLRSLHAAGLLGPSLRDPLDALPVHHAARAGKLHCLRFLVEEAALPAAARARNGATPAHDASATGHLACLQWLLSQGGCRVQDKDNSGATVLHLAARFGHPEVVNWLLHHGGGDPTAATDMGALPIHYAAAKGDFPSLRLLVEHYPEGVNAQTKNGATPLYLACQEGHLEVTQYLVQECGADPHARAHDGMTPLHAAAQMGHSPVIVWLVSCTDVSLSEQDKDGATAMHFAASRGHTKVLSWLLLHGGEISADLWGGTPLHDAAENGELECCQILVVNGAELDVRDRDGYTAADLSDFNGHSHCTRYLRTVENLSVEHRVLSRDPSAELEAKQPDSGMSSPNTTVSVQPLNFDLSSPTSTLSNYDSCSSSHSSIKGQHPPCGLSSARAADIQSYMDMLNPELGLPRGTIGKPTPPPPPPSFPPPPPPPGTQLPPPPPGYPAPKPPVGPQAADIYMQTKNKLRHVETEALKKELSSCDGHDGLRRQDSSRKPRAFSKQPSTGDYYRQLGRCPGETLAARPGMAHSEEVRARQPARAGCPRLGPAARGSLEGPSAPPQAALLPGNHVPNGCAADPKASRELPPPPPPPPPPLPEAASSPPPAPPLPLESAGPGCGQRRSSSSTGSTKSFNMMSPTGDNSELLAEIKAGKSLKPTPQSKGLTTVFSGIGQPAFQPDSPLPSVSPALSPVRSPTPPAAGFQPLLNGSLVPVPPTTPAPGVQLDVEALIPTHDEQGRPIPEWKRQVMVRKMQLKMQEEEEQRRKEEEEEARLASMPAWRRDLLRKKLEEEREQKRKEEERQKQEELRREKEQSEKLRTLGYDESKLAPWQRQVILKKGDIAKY

[2] = target: T1, full-length recombinant human espin 1 …; test: SEC; Superdex 200 10/300 GL, 0.4 ml/min, 50 mM sodium acetate, 2 mM MgCl2, 1 mM EGTA, 30 mM HEPES pH 7.5; fractions analysed by SDS-PAGE; both purified
[3] = target: T1, full-length recombinant human espin 1 …; test: negative-stain TEM with 2D class averaging and Ni-NTA nanogold labelling; purified espin 1 alone on carbon-coated grids, 1% uranyl acetate; 5 nm Ni-NTA nanogold on the N-terminal his6-tag; 2D classes with SPIDER; both purified

binding [1]: no binding
binding [2]: no binding
binding [3]: no binding
B1: full-length recombinant human espin 1 (ectoplasmic specialization protein 1), B1AK53 1-854 (protein)
chain: MALEQALQAARQGELDVLRSLHAAGLLGPSLRDPLDALPVHHAARAGKLHCLRFLVEEAALPAAARARNGATPAHDASATGHLACLQWLLSQGGCRVQDKDNSGATVLHLAARFGHPEVVNWLLHHGGGDPTAATDMGALPIHYAAAKGDFPSLRLLVEHYPEGVNAQTKNGATPLYLACQEGHLEVTQYLVQECGADPHARAHDGMTPLHAAAQMGHSPVIVWLVSCTDVSLSEQDKDGATAMHFAASRGHTKVLSWLLLHGGEISADLWGGTPLHDAAENGELECCQILVVNGAELDVRDRDGYTAADLSDFNGHSHCTRYLRTVENLSVEHRVLSRDPSAELEAKQPDSGMSSPNTTVSVQPLNFDLSSPTSTLSNYDSCSSSHSSIKGQHPPCGLSSARAADIQSYMDMLNPELGLPRGTIGKPTPPPPPPSFPPPPPPPGTQLPPPPPGYPAPKPPVGPQAADIYMQTKNKLRHVETEALKKELSSCDGHDGLRRQDSSRKPRAFSKQPSTGDYYRQLGRCPGETLAARPGMAHSEEVRARQPARAGCPRLGPAARGSLEGPSAPPQAALLPGNHVPNGCAADPKASRELPPPPPPPPPPLPEAASSPPPAPPLPLESAGPGCGQRRSSSSTGSTKSFNMMSPTGDNSELLAEIKAGKSLKPTPQSKGLTTVFSGIGQPAFQPDSPLPSVSPALSPVRSPTPPAAGFQPLLNGSLVPVPPTTPAPGVQLDVEALIPTHDEQGRPIPEWKRQVMVRKMQLKMQEEEEQRRKEEEEEARLASMPAWRRDLLRKKLEEEREQKRKEEERQKQEELRREKEQSEKLRTLGYDESKLAPWQRQVILKKGDIAKY
